Measurements reported in publication PMC5418627.
Results are given in words; binding and its absence hold for the method and conditions named. Binding seen in cells or lysates may run through a third protein. Some entries that bind do so weakly or less than the wild type. Tags and fused reporters may be left off the sequences shown.

Amino acid sequences for entries named in this document (tags omitted).
UniProt P61077: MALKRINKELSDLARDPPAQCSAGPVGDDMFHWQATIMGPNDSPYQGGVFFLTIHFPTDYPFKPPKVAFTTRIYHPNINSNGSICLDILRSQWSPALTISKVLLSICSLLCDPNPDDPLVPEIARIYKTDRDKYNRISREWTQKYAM

What was measured:
Assay in all cases: co-IP
[1] = biological target: T1, Flag-RIG-I (full length) (human) (UniProt O95786)
T1 sequence: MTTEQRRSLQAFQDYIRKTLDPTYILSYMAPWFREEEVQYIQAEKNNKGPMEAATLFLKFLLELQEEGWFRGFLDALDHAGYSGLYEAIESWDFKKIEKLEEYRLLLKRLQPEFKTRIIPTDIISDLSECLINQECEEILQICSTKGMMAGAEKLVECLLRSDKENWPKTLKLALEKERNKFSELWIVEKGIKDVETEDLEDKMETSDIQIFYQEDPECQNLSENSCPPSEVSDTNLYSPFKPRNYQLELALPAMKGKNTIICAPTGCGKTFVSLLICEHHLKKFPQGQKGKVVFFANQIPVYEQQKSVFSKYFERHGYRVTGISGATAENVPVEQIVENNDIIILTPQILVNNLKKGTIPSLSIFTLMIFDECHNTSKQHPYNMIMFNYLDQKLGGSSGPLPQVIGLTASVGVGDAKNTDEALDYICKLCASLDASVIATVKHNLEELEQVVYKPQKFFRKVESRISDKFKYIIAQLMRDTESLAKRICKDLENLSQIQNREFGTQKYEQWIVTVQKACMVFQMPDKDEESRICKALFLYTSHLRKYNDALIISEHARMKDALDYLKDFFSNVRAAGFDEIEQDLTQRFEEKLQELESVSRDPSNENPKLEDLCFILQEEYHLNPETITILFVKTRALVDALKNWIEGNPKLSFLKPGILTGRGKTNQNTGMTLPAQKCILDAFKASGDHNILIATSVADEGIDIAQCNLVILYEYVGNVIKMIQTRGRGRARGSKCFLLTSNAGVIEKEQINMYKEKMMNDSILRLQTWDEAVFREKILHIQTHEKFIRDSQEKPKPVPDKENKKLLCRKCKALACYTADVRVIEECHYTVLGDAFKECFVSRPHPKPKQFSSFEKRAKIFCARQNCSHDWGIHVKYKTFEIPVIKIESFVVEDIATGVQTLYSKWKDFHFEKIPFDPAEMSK

[2] = biological target: T2, Flag-RIG-I-2CARD (aa 1-200) (human) (UniProt O95786)
T2 sequence: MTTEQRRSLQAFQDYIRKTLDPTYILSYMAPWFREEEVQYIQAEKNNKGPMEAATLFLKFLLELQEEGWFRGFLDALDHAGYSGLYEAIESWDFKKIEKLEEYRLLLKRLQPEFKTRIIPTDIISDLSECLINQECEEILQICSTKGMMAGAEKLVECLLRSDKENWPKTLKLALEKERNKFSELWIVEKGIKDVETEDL

[3] = biological target: T3, Flag-RIG-I-ΔRD (aa 1-794) (human) (UniProt O95786)
T3 sequence: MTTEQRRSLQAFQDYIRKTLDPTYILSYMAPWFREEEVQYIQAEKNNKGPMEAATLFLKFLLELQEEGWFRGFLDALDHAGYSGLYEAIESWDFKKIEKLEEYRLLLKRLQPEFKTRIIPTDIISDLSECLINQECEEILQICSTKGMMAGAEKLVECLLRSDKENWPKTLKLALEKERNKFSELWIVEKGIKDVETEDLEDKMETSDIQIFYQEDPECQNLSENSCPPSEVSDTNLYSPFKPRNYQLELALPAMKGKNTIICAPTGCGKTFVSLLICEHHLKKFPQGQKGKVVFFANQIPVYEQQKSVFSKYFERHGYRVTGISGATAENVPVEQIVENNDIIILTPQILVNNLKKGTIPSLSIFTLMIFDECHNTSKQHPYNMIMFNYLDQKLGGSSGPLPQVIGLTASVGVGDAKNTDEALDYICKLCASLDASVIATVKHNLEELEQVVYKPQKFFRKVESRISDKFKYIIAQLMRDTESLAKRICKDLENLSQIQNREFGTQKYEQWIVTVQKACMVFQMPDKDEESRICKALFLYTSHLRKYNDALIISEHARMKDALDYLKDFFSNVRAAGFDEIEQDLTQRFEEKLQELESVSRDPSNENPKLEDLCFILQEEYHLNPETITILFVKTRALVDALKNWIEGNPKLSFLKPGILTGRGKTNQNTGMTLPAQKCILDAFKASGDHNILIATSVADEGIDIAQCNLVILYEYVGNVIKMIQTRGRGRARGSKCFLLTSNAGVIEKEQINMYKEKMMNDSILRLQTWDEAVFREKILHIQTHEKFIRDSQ

Flag-Ube2D3 (human) = Flag-Ube2D3 (human) (UniProt P61077)
Flag-Ube2N (human) = Flag-Ube2N (human) (UniProt P61088)
[4] = biological target: T4, Flag-Ube2N (human), P61088; conditions: remark: other sources report otherwise
T4 chain: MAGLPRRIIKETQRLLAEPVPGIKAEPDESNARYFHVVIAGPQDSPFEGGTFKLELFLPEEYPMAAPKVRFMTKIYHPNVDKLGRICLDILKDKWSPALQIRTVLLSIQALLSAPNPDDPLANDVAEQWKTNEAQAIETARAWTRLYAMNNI

Flag-Riplet (human) = biological target: T5, Flag-Riplet (human) (UniProt Q8IUD6)
T5 sequence: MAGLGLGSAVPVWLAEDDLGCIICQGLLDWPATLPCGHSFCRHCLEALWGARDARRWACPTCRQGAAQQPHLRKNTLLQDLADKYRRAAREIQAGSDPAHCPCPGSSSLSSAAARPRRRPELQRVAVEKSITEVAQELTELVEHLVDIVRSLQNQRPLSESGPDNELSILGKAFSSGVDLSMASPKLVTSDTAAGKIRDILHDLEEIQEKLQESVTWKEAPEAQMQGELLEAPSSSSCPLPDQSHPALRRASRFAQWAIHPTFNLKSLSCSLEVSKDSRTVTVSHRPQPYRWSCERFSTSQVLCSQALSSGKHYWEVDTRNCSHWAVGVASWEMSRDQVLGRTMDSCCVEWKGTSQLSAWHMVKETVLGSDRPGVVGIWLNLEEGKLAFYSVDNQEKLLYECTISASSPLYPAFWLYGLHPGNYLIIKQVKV

[5] = biological target: T6, Flag-Riplet-SPRY (aa 261-428) (human) (UniProt Q8IUD6)
T6 sequence: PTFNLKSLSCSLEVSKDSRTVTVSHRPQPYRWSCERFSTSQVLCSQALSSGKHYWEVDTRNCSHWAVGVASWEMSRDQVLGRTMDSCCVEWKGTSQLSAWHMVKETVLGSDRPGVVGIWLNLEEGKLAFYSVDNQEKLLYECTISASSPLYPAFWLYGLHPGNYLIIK

Measured: binding

B1: HA-Riplet (protein, UniProt Q8IUD6 1-432)
chain: T5 sequence
binds: [1] | [2] | [3] | Flag-Ube2D3 (human) | Flag-Ube2N (human)

B2: HA-RIG-I, O95786 1-925 (protein)
chain: T1 sequence
binds: [4]

B3: HA-RIG-I (protein, UniProt O95786 1-925)
chain: T1 sequence
binds: Flag-Riplet (human) | [5] | Flag-Ube2D3 (human)
